# Counter-ions that a name gives are not always drawn. Some of the results follow. Many values rest on one well or one pass, so single values are uncertain.
# Tests used:
# [1] = test system: Caenorhabditis elegans ST65 (ncIs13[ajm-1::GFP]); assay: 'Larvae/adult' ratio (MetaXpress pharynx counts; minimum value 1, so it appears to include adults; growth inhibition read-out); conditions: 10 µM; exposure time: 4-5 days from L1 at 20°C
# [2] = test system: Caenorhabditis elegans ST65 (ncIs13[ajm-1::GFP]); assay: vulvae per adult worm (MAPK/ERK-dependent vulval induction, MetaXpress) (vulvae/adult); higher = more vulval induction (less MAPK/ERK inhibition); conditions: 10 µM; exposure time: 4-5 days from L1 at 20°C
Compound,'Larvae/adult' ratio [1],vulvae per adult worm [2]
COc1cc(CCc2cc(NC(=O)c3ccc(N4CC(C)NC(C)C4)cc3)n[nH]2)cc(OC)c1 (centres undefined),1.87,0.516
"CCNC(=O)c1noc(-c2cc(C(C)C)c(O)cc2O)c1-c1ccc(CN2CCOCC2)cc1 [Luminespib (AUY-922, NVP-AUY922)]",2.03,0.806
COc1ccc(-c2ccc3c(N4CCOC[C@@H]4C)nc(N4CCOC[C@@H]4C)nc3n2)cc1CO,1.74,0.0263
CCC(C)(C)C(=O)O[C@H]1C[C@@H](C)C=C2C=C[C@H](C)[C@H](CC[C@@H]3C[C@@H](O)CC(=O)O3)[C@H]21 [Simvastatin],1.33,0.917
COc1cc2c(Oc3ccc(NC(=O)C4(C(=O)Nc5ccc(F)cc5)CC4)cc3F)ccnc2cc1OCCCN1CCOCC1,2.8,0.6
CN1CCN(c2ccc(C(=O)Nc3n[nH]c4ccc(Cc5cc(F)cc(F)c5)cc34)c(NC3CCOCC3)c2)CC1 [Entrectinib (RXDX-101)],1.38,0.436
CC(=O)O[C@]1(C(C)=O)CC[C@H]2[C@@H]3C=C(C)C4=CC(=O)CC[C@]4(C)[C@H]3CC[C@@]21C [Megestrol Acetate],2.68,0.92
"O=C(c1ccc(F)c(F)c1Nc1ccc(I)cc1F)N1CC(O)([C@@H]2CCCCN2)C1 [Cobimetinib (GDC-0973, RG7420)]",2.94,0.943
O=C(O)CCCCC(CCSCc1ccccc1)SCc1ccccc1 (centres undefined),2.48,0.904
CN(C)C(=O)c1cc2cnc(Nc3ccc(N4CCNCC4)cn3)nc2n1C1CCCC1 [Ribociclib (LEE011)],2.5,0.833
Cn1nnc2c(C(N)=O)ncn2c1=O [Temozolomide],2.42,1.09
C[C@@H](Oc1cc(-c2cnn(C3CCNCC3)c2)cnc1N)c1c(Cl)ccc(F)c1Cl,1.66,0.977
CC(C)(O)CNc1nc(Nc2ccnc(C(F)(F)F)c2)nc(-c2cccc(C(F)(F)F)n2)n1 [Enasidenib (AG-221)],4.45,0.818
CC[C@@]1(O)C(=O)OCc2c1cc1n(c2=O)Cc2cc3c(CN(C)C)c(O)ccc3nc2-1 [Topotecan HCl],1.91,0.953
CC(C)(O)CC(=O)NCCn1ccc2ncnc(Nc3ccc(Oc4cccc(C(F)(F)F)c4)c(Cl)c3)c21,1.9,0.462
C[C@@H]1COCCN1c1cc(C2([S@](C)(=N)=O)CC2)nc(-c2cc[nH]c3nccc2-3)n1,1.85,0.735
CN(C(=O)c1ccc(F)cc1C(F)(F)F)C1CCN(c2nnc(-c3ccnn3C)c3ccccc23)CC1,3.2,1.25
CC(C)(C)Cn1c(N)nc2ccc(-c3[nH]c(C(C)(C)C)nc3-c3ccc(F)cc3)nc21,1.69,1.05
CN1CC[C@H](c2c(O)cc(O)c3c(=O)cc(-c4ccccc4Cl)oc23)[C@H](O)C1 [Flavopiridol (Alvocidib)],2.87,0.6
"CCCS(=O)(=O)Nc1ccc(F)c(C(=O)c2c[nH]c3ncc(-c4ccc(Cl)cc4)cc23)c1F [Vemurafenib (PLX4032, RG7204)]",2.03,0.972
CNC(=O)c1ccc(C)c(-n2c(C)cc(OCc3ccc(F)cc3F)c(Br)c2=O)c1,2.51,1.15

# Two records picked at random from those above:
Compound,'Larvae/adult' ratio [1],vulvae per adult worm [2]
COc1ccc(-c2ccc3c(N4CCOC[C@@H]4C)nc(N4CCOC[C@@H]4C)nc3n2)cc1CO,1.74,0.0263
CC(C)(O)CC(=O)NCCn1ccc2ncnc(Nc3ccc(Oc4cccc(C(F)(F)F)c4)c(Cl)c3)c21,1.9,0.462

# Remaining list, next part.

Compound,'Larvae/adult' ratio [1],vulvae per adult worm [2]
CCN(CCCOc1ccc2c(Nc3cc(CC(=O)Nc4cccc(F)c4)[nH]n3)ncnc2c1)CCOP(=O)(O)O [Barasertib (AZD1152-HQPA)],2.64,1.09
COc1ccccc1S(=O)(=O)Nc1ccc2c(c1)CN(C)C(=O)N2,3.42,1.26
CC[C@]1(O)C[C@@H]2CN(CCc3c([nH]c4ccccc34)[C@@](C(=O)OC)(c3cc4c(cc3OC)N(C)[C@H]3[C@@](O)(C(=O)OC)[C@H](OC(C)=O)[C@]5(CC)C=CCN6CC[C@]43[C@@H]65)C2)C1 [Vinblastine sulfate],1.82,1.09
Cc1nc(Nc2n[nH]c3c2CN(C(=O)N[C@H](CN(C)C)c2ccccc2)C3(C)C)c2sccc2n1,2,1
Cc1ccc(=O)n(-c2ccccc2)c1 [Pirfenidone],1.67,1
O=c1[nH]c(=O)n([C@H]2C[C@H](O)[C@@H](CO)O2)cc1C(F)(F)F [Trifluridine],1.58,1.11
CO[C@H]1C[C@@H]2CC[C@@H](C)[C@@](O)(O2)C(=O)C(=O)N2CCCC[C@H]2C(=O)O[C@H]([C@H](C)C[C@@H]2CC[C@@H](O)[C@H](OC)C2)CC(=O)[C@H](C)/C=C(\C)[C@@H](O)[C@@H](OC)C(=O)[C@H](C)C[C@H](C)/C=C/C=C/C=C/1C [Rapamycin (Sirolimus)],2.33,1.14
COc1cc(N2CCC(N3CCN(C)CC3)CC2)ccc1Nc1ncnc(Nc2ccccc2S(=O)(=O)C(C)C)n1,1.9,1.05
COc1cccc2c1c(O)c(C(=O)N(C)c1ccc(C(F)(F)F)cc1)c(=O)n2C [Tasquinimod],1.33,1.05
O=C(CCCCCCNC(=O)c1cnc(N(c2ccccc2)c2ccccc2)nc1)NO [Ricolinostat (ACY-1215)],2,1.04
CCCC(CCC)C(=O)O [Valproic acid],2.7,1
C=CC(=O)Nc1cc2c(Nc3ccc(F)c(Cl)c3)ncnc2cc1OCCCN1CCOCC1 [Canertinib (CI-1033)],2.36,0.917
Cc1ccc(Nc2nccc(N(C)c3ccc4c(C)n(C)nc4c3)n2)cc1S(N)(=O)=O [Pazopanib],3.67,0.667
Cc1ccc(C(=O)Nc2cccc(C(F)(F)F)c2)cc1Nc1nc(-c2cccnc2)nc2c1cnn2C,1.77,1
CCN(CC)CCN(Cc1ccc(-c2ccc(C(F)(F)F)cc2)cc1)C(=O)Cn1c(SCc2ccc(F)cc2)nc(=O)c2c1CCC2,1.83,1
CCCCc1nc2cc(/C=C/C(=O)NO)ccc2n1CCN(CC)CC [Pracinostat (SB939)],1.57,0.0196
O=C(Nc1cccc(Nc2ncc(Br)c(NCCc3cnc[nH]3)n2)c1)N1CCCC1,1.54,0.708
"O=c1[nH]cc(F)c(=O)[nH]1 [Fluorouracil (5-Fluoracil, 5-FU)]",1.73,1.23
Cc1c(Cn2c(C)nc3c(C(=O)O)cc(N4CCOCC4)cc32)cccc1C(F)(F)F,2.61,1.07
NC(=O)NO [Hydroxyurea],1.67,1
N#Cc1ccnc(N2C(=O)CC[C@H]2C(=O)N(c2cncc(F)c2)[C@H](C(=O)NC2CC(F)(F)C2)c2ccccc2Cl)c1 [Ivosidenib (AG-120)],4.47,1.6

Compound,'Larvae/adult' ratio [1],vulvae per adult worm [2]
Cc1cc(-c2nc(-c3ccc(OC(F)(F)F)cc3)no2)nn1Cc1ccnc(N2CCN(C3CC3)CC2)c1,1.87,0.522
Cc1cnc(NC(=O)Nc2cc(Br)c(C)cc2OC[C@@H]2CNCCO2)cn1,2.36,0.972
COc1cc(C)c(/C=C/C(C)=C/C=C/C(C)=C/C(=O)O)c(C)c1C [Acitretin],2.24,0.586
COc1cc2c(cc1OC(C)C)[C@H](c1ccc(Cl)cc1)N(c1ccc(N(C)C[C@H]3CC[C@H](N4CCN(C)C(=O)C4)CC3)cc1)C(=O)C2,2.31,1.08
CCOc1cc2ncc(C#N)c(Nc3ccc(OCc4ccccn4)c(Cl)c3)c2cc1NC(=O)/C=C/CN(C)C [Neratinib (HKI-272)],1.91,1.06
CN(c1ncccc1CNc1nc(Nc2ccc3c(c2)CC(=O)N3)ncc1C(F)(F)F)S(C)(=O)=O,2.61,0.278
NC(=S)N/N=C/c1ncccc1N [Triapine],1.25,1
C=CC[C@@H]1/C=C(\C)C[C@H](C)C[C@H](OC)[C@H]2O[C@@](O)(C(=O)C(=O)N3CCCC[C@H]3C(=O)O[C@H](/C(C)=C/[C@@H]3CC[C@@H](O)[C@H](OC)C3)[C@H](C)[C@@H](O)CC1=O)[C@H](C)C[C@@H]2OC [Tacrolimus (FK506)],1.86,0.714
O=C1c2c(O)ccc(O)c2C(=O)c2c(NCCNCCO)ccc(NCCNCCO)c21 [Mitoxantrone 2HCl],1.73,0.867
CC(=O)Nc1ccc(C(=O)Nc2ccccc2N)cc1 [Tacedinaline (CI994)],1.67,1.08
C=CCn1c(=O)c2cnc(Nc3ccc(N4CCN(C)CC4)cc3)nc2n1-c1cccc(C(C)(C)O)n1 [Adavosertib (MK-1775)],2.1,0.905
C#Cc1cccc(Nc2ncnc3cc4c(cc23)OCCOCCOCCO4)c1 [Icotinib],4.8,0.8
COc1cc2ncnc(Nc3ccc(F)c(Cl)c3)c2cc1NC(=O)/C=C/CN1CCCCC1,2,0.884
CN1CCC(COc2cnc(-c3cccc(Cn4nc(-c5cccc(C#N)c5)ccc4=O)c3)nc2)CC1,3.29,1.52
CNC(=O)c1ccc2cc([C@@]3(O)CCn4cncc43)ccc2c1 [TAK-700 (Orteronel)],1.96,0.935
O=C(Nc1cnn2ccc(N3CCC[C@@H]3c3cc(F)ccc3F)nc12)N1CC[C@H](O)C1 [Larotrectinib (LOXO-101) sulfate],2.52,0.931
CC(=O)c1c(C)c2cnc(Nc3ccc(N4CCNCC4)cn3)nc2n(C2CCCC2)c1=O,2.43,0.973
C=CC(=O)N1CCC(Oc2cc3c(Nc4ccc(Cl)c(Cl)c4F)ncnc3cc2OC)CC1 [Poziotinib (HM781-36B)],1.97,1
O=C(c1ccc(OCCN2CCCCC2)cc1)c1c(-c2ccc(O)cc2)sc2cc(O)ccc12 [Raloxifene HCl],4.06,0.778
Nc1nc2[nH]cnc2c(=S)[nH]1 [Thioguanine],1.75,0.938

# Looked up above:
# Under vulvae per adult worm [2], `COc1cc2c(cc1OC(C)C)[C@H](c1ccc(Cl)cc1)N(c1ccc(N(C)C[C@H]3CC[C@H](N4CCN(C)C(=O)C4)CC3)cc1)C(=O)C2` shows 1.08
# Under 'Larvae/adult' ratio [1], `C#Cc1cccc(Nc2ncnc3cc4c(cc23)OCCOCCOCCO4)c1` [Icotinib] shows 4.8
